PubChem BioAssay AID1259266 – Sanger Institute | 2017
Shown is a random part of 794 deposited reagents. Of all reagents, 16 (2%) got an active call. 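Calls reflect knock-down alone, not drug synergy; viability seems capped at 1 and z-scores at 0.585.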 Reagent sequences are not shown. The record does not give: the amount of reagent, the time to read-out.

- Aim: 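Find knock-downs that kill LS123 cells or act with anchor drugs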 (primary screen)
- Cells: LS123 human colorectal cancer cells
- Knock-down reagent: siRNA pool against human genes
- Conditions: anchor drugs BYL719 (1 µM), cetuximab (5 µg/ml) or trametinib (10 nM), each chosen to barely slow growth alone; DMSO vehicle as the drug-free arm
- Detection: 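Replicate-averaged viability scaled to non-targeting pools, robust z-score for siRNA alone, and a synergy score per anchor drug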
- Scale: robust z-score, knock-down alone: higher = more cells surviving after knock-down; viability, knock-down alone: higher = more viable cells; synergy score with trametinib and synergy score with BYL719 and synergy score with cetuximab: higher = stronger synthetic lethality with drug
- Rule for the call: 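a knock-down counts as essential if its z-score without drug is under -3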
- Calls: active = essential (knock-down alone cuts viability); inactive = no change

no.	gene knocked down	robust z-score, knock-down alone	viability, knock-down alone (fraction of control)	synergy score with trametinib	synergy score with BYL719	synergy score with cetuximab	outcome
1	CDC42BPA (CDC42 binding protein kinase alpha)	0.292	0.983	0.00757	-0.0196	0.0789	inactive
2	SYK (spleen associated tyrosine kinase)	-1.73	0.863	0.0463	0.061	0.116	inactive
3	MAP2K7 (mitogen-activated protein kinase kinase 7)	-0.671	0.925	-0.11	-0.0669	-0.0859	inactive
4	NEK1 (NIMA related kinase 1)	0.585	1	-0.0311	-0.0782	0.0435	inactive
5	KHK (ketohexokinase)	-1.5	0.876	-0.177	-0.142	-0.0541	inactive
6	DLG2 (discs large MAGUK scaffold protein 2)	0.585	1	-0.186	-0.135	-0.0122	inactive
7	FGFR3 (fibroblast growth factor receptor 3)	0.585	1	-0.105	0.00252	-0.0122	inactive
8	TRIM27 (tripartite motif containing 27)	-0.766	0.92	-0.127	-0.038	-0.0385	inactive
9	DLG4 (discs large MAGUK scaffold protein 4)	-0.00532	0.965	0.0412	-0.0153	-0.0469	inactive
10	CDK18 (cyclin dependent kinase 18)	-2.04	0.844	-0.0757	-0.105	0.00407	inactive
11	CRIM1 (cysteine rich transmembrane BMP regulator 1)	0.585	1	-0.142	-0.159	-0.0122	inactive
12	DNMT3A (DNA methyltransferase 3 alpha)	0.585	1	-0.186	-0.158	-0.0122	inactive
13	RPS6KA5 (ribosomal protein S6 kinase A5)	-0.941	0.909	-0.0697	-0.0906	-0.0532	inactive
14	CAMK2A (calcium/calmodulin dependent protein kinase II alpha)	0.582	1	0.00561	-0.0617	0.0319	inactive
15	STK36 (serine/threonine kinase 36)	0.585	1	0.109	-0.0566	0.0463	inactive
16	ROR1 (ROR family WNT receptor 1)	0.585	1	-0.0808	-0.0897	0.0346	inactive
17	NR2F2 (nuclear receptor subfamily 2 group F member 2)	-0.104	0.959	-0.142	-0.0818	0.00798	inactive
18	SOX9 (SRY-box transcription factor 9)	-0.0367	0.963	-0.0113	-0.0241	-0.0204	inactive
19	EIF2AK3 (eukaryotic translation initiation factor 2 alpha kinase 3)	0.585	1	-0.0277	-0.158	-0.0122	inactive
20	PTK6 (protein tyrosine kinase 6)	0.0559	0.969	-0.023	-0.0574	-0.0196	inactive
21	NRBP2 (nuclear receptor binding protein 2)	-0.976	0.907	0.0554	-0.0327	0.134	inactive
22	CSNK2A2 (casein kinase 2 alpha 2)	-1.97	0.848	-0.00919	0.0498	-0.035	inactive
23	YES1 (YES proto-oncogene 1, Src family tyrosine kinase)	-1.07	0.902	-0.0133	-0.111	0.0603	inactive
24	CAMKK1 (calcium/calmodulin dependent protein kinase kinase 1)	0.533	0.997	-0.0393	-0.101	0.00749	inactive
25	SMAD4 (SMAD family member 4)	0.585	1	0.0015	-0.152	-0.0122	inactive
26	MAP4K5 (mitogen-activated protein kinase kinase kinase kinase 5)	-1.6	0.87	-0.137	-0.206	-0.0701	inactive
27	RIPK3 (receptor interacting serine/threonine kinase 3)	-0.052	0.962	-0.0492	-0.0528	0.041	inactive
28	CDKN2C (cyclin dependent kinase inhibitor 2C)	0.585	1	-0.0867	-0.0816	-0.0122	inactive
29	NEK3 (NIMA related kinase 3)	-0.854	0.915	0.000662	0.0264	-0.017	inactive
30	WT1 (WT1 transcription factor)	0.585	1	-0.119	-0.124	-0.0122	inactive
31	BRD4 (bromodomain containing 4)	-1.7	0.864	-0.0898	-0.0871	-0.0615	inactive
32	CALM1 (calmodulin 1)	0.585	1	-0.091	-0.117	-0.0122	inactive
33	FLT4 (fms related receptor tyrosine kinase 4)	0.585	1	-0.0159	-0.05	0.0975	inactive
34	PANK3 (pantothenate kinase 3)	0.585	1	-0.0498	-0.13	0.0312	inactive
35	GALK2 (galactokinase 2)	-0.402	0.941	-0.0345	-0.0435	0.00213	inactive
36	PRKDC (protein kinase, DNA-activated, catalytic subunit)	0.585	1	-0.101	-0.043	-0.00862	inactive
37	PIP5KL1 (phosphatidylinositol-4-phosphate 5-kinase like 1)	0.585	1	-0.186	-0.159	-0.0122	inactive
38	HASPIN (histone H3 associated protein kinase)	-0.0477	0.962	-0.0108	-0.0696	-0.0493	inactive
39	CIB2 (calcium and integrin binding family member 2)	-0.306	0.947	-0.0326	-0.0906	0.0701	inactive
40	HIPK1 (homeodomain interacting protein kinase 1)	0.585	1	-0.124	-0.159	-0.0122	inactive
41	GRK4 (G protein-coupled receptor kinase 4)	0.0567	0.969	-0.0633	-0.0185	-0.0432	inactive
42	NTRK2 (neurotrophic receptor tyrosine kinase 2)	0.585	1	-0.0964	-0.159	-0.0122	inactive
43	UCKL1 (uridine-cytidine kinase 1 like 1)	0.479	0.994	0.138	-0.00238	0.0748	inactive
44	IRAK3 (interleukin 1 receptor associated kinase 3)	-2.12	0.84	-0.0332	-0.126	0.0547	inactive
45	GAK (cyclin G associated kinase)	0.424	0.99	0.0186	-0.00812	0.00429	inactive
46	PHKA2 (phosphorylase kinase regulatory subunit alpha 2)	-1.43	0.88	-0.0448	-0.102	0.00092	inactive
47	MATK (megakaryocyte-associated tyrosine kinase)	-0.604	0.929	-0.0507	-0.0159	0.0664	inactive
48	STK4 (serine/threonine kinase 4)	0.585	1	-0.186	-0.115	-0.0122	inactive
49	IRAK4 (interleukin 1 receptor associated kinase 4)	0.585	1	-0.0743	-0.0542	-0.0122	inactive
50	SRGAP3 (SLIT-ROBO Rho GTPase activating protein 3)	0.487	0.994	-0.143	-0.164	-0.018	inactive

Records above whose target name starts with G or g (3):
gene knocked down	robust z-score, knock-down alone	viability, knock-down alone (fraction of control)	synergy score with trametinib	synergy score with BYL719	synergy score with cetuximab	outcome
GALK2 (galactokinase 2)	-0.402	0.941	-0.0345	-0.0435	0.00213	inactive
GRK4 (G protein-coupled receptor kinase 4)	0.0567	0.969	-0.0633	-0.0185	-0.0432	inactive
GAK (cyclin G associated kinase)	0.424	0.99	0.0186	-0.00812	0.00429	inactive
